Results are given in words; binding and its absence hold for the method and conditions named. Some binding calls cover weakened binding; strength is not graded here. Where a sequence is shown, tags or fusion partners need not be part of it.
Columns and labels:
[1] = target: Envelope protein (TM in the context of the whole envelope protein) on intact ecotropic N2 virus (Moloney murine leukemia virus) (UniProt P03385); experiment: in vitro binding assay with intact virus
[2] = target: Envelope protein (TM in the context of the whole envelope protein) on intact ecotropic N2 virus (Moloney murine leukemia virus) (UniProt P03385); experiment: depletion of N2 virus by GST-EIP-agarose beads
[3] = target: Envelope protein (TM in the context of the whole envelope protein) on intact ecotropic N2 virus (Moloney murine leukemia virus) (UniProt P03385); experiment: depletion of N2 virus by GST-EIP-agarose beads; titer of supernatant on NIH3T3 cells

Sequences of proteins named here, by UniProt entry; tags and fusion partners are left off. Residues count along the entry.
UniProt P03385, residues 34-649: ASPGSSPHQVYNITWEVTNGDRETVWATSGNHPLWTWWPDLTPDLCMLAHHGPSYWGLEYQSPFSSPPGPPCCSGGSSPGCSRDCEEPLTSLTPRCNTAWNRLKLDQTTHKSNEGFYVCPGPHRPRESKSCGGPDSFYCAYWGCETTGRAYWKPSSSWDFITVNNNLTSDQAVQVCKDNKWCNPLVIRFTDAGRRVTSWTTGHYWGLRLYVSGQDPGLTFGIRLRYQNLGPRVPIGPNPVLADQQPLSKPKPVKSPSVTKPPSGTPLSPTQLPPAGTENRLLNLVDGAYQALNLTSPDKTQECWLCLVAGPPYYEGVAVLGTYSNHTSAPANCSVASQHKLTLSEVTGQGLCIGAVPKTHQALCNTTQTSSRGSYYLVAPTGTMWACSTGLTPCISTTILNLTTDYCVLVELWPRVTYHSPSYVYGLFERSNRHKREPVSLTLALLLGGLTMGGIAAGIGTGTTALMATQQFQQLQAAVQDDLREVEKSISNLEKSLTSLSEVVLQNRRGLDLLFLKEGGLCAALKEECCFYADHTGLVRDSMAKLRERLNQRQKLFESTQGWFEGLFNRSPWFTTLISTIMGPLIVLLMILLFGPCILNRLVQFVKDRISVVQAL

Measured: binding

B1: GST-EIP-3 (protein, not shown: a dimerising Fc or GST)
chain: ELVGMSGGGTETPVACDAAQGGKKRDSLGTPGAAHLIIKDLGEIHSRLLDHRPVTQGEIRYFVKEFEEKRGLRELRVLKNLENTIQETNECLLPKCRETMECGLGETLQRLQAANDSICRLQQREQERKKVINDYLTASEKRRLVQWEEFVSGQPQRRAEVDEEHRRAVERLREQYAAMEKDLAKFSTF
binds: all assays above
